Data reported in PMC5597579.
No constants are given. Whether binding was seen depends on the method and setting. Binding seen in cells or lysates may run through a third protein. Some results given as binding are weak or reduced against the parent protein; the word gives no strength. Sequences can lack the tags named with a protein.

Protein sequences, listed by entry. Tags and fused reporters are not part of them.
UniProt Q9Y812: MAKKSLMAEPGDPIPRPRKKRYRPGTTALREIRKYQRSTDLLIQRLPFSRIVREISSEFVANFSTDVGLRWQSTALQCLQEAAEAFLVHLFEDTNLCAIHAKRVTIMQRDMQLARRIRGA

Molecular target: T1, Ies6-5×Flag (Schizosaccharomyces pombe) (UniProt Q9UTE8)
T1 sequence: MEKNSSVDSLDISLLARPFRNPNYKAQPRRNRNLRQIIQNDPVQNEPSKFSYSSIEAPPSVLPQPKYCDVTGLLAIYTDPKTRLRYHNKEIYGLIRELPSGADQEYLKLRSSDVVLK
Assay: co-IP; S. pombe log-phase cell extracts in NP40 lysis buffer (1% NP40, 200 mM NaCl, 2 mM EDTA, phosphate); immunoprecipitation with anti-Flag (M2)-agarose of Ies6-5×Flag; western blot with anti-Flag and anti-CENP-A^Cnp1; CENP-A^Cnp1 overexpressed

binding: binds
Substance: centromere protein A (CENP-A^Cnp1) (from UniProt Q9Y812 1-120)
